# Source: PubChem BioAssay AID1347075 (National Center for Advancing Translational Sciences (NCATS), 2019)
# The whole screen tested about 400,000 compounds, of which about 5,500 (1.4%) were called active. The inconclusive results got no clear call from the source; some entries with a clear call stand among them for comparison. Calls come from the whole dose curve; as a rule, active = well fitted cell-killing curve with a large enough effect; inconclusive = small, poorly fitted or top-dose-only effect, or effect the other way; inactive = flat fitted curve, though single readings scatter. Where the call is inconclusive, the potency comes from a doubtful curve fit.
# Test: qHTS assay for MDR1-selective chemotherapeutics: Primary screen using the parental adenocarcinoma cell KB-3-1; note: nearly all actives have a fitted effect of over 60% in size
# Settings: KB-3-1 viability, CellTiter-Glo ATP luminescence, 72 h; activity change, negative = cytotoxic: at 46.1 µM (top of the series)
# Procedure, shortened: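 Viability of parental KB-3-1 cells, measured by CellTiter-Glo luminescence, followed a 72 h incubation at 37 °C with pinned compounds in phenol-red-free DMEM containing 10% FBS.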
# % is set by controls: 0 for no effect and ±100 for the full control effect; potency is the fitted concentration of half-maximal effect.
SMILES,Potency,"activity change, negative = cytotoxic"
CCCCOc1ccc(C(=O)NCC(=O)OC2CCOC2=O)cc1 (stereo not given),"inconclusive: 29.1 µM [cytotoxic, single point]",
CCOc1cc(C(=O)Nc2nnc(S(=O)(=O)N3CCOCC3)s2)cc(OCC)c1OCC,,inactive: 4.45%
Cc1ccc(C)c2[nH]c(=O)c(CN(CCCN(C)C)C(=O)NCc3ccccc3)cc12,"inconclusive: 18.4 µM [cytotoxic, partial curve, poor fit]",
CCNC(=O)c1cc2c(c(-c3cccc(-c4cccnc4)c3)n1)[C@H](CCO)N(S(C)(=O)=O)C2,active: 2.91 µM,
CCN(CC)C(=O)c1cccc(-c2csc(C(O)(c3ccccc3)C(F)(F)F)n2)c1 (stereo not given),"inconclusive: 29.1 µM [cytotoxic, single point]",
O=C(C1CCCCC1)N1CCN(c2ccnc3cc(Cl)ccc23)CC1,"inconclusive: 29.1 µM [cytotoxic, partial curve, poor fit]",
Cn1c(=O)n(C)c2cc(N3CCOCC3)c(NC(=O)c3ccc(C(C)(C)C)cc3)cc21,,inactive: 3.09%
Cc1ccc(C(=O)Nc2ncc(C)s2)s1,,inactive: -3.74%
CC(=O)Oc1ccccc1N(C(C)=O)S(=O)(=O)c1ccc(C)cc1,,inactive: 5.26%
CCc1ccccc1NC(=O)C(CC)Sc1nc2cc3c(cc2c(=O)n1Cc1ccco1)OCO3 (stereo not given),"inconclusive: 25.9 µM [cytotoxic, partial curve, poor fit]",
CCOc1ccccc1NC1=C(Cl)C(=O)N(Cc2ccccc2)C1=O,"inconclusive: 29.1 µM [cytotoxic, single point]",
CC(C)OC(=O)c1nnc(Cc2ccc(Cl)cc2)o1,,inconclusive: -34.1%
Cc1cccc(NC(=O)CN(C)S(=O)(=O)c2ccc3c(c2)CCC(=O)N3)c1C,,inactive: 25%
CCCSc1ncc(Cl)c(C(=O)Nc2ccc(S(=O)(=O)N3CC(C)OC(C)C3)cc2)n1 (stereo not given),"inconclusive: 8.2 µM [cytotoxic, partial curve]",
C=C[C@H]1C(C(=O)OCC)=CC[C@@H](c2ccccc2)N1S(=O)(=O)c1ccc(C)cc1,"inconclusive: 25.9 µM [cytotoxic, single point]",
CCCCCCCCCCCCCCCC[N+](C)(C)Cc1ccc(F)cc1,"inconclusive: 29.1 µM [cytotoxic, single point]",
CCN(CC)c1ccc(N=C2C(=O)Nc3ccccc32)cc1,"inconclusive: 5.8 µM [cytotoxic, partial curve]",
CC(C)(C)OC(=O)N1CCN(C(c2ccnc3ccccc23)c2nnnn2-c2ccc3c(c2)OCCO3)CC1 (stereo not given),"inconclusive: 16.4 µM [cytotoxic, single point]",
COc1ccc(CN(C)C(=O)c2cccc(S(=O)(=O)N3CCCc4ccccc43)c2)c(OC)c1OC,"inconclusive: 20.6 µM [cytotoxic, partial curve, poor fit]",
CC(Oc1ccc(Cl)cc1Cl)C(=O)NC(=S)N1CCc2ccccc21 (stereo not given),"inconclusive: 23.1 µM [cytotoxic, single point]",
Cc1ccc(Nc2nc3ccccc3nc2-n2nc(C)cc2C)c(Cl)c1,,inactive: 0.623%
Cc1c(C(=O)Nc2ccc(F)cc2)oc2ccc(S(=O)(=O)N3CCCCCC3)cc12,,inactive: -27.1%

# 2 successive compounds already listed, quoted:
SMILES,Potency,"activity change, negative = cytotoxic"
CCCSc1ncc(Cl)c(C(=O)Nc2ccc(S(=O)(=O)N3CC(C)OC(C)C3)cc2)n1 (stereo not given),"inconclusive: 8.2 µM [cytotoxic, partial curve]",
C=C[C@H]1C(C(=O)OCC)=CC[C@@H](c2ccccc2)N1S(=O)(=O)c1ccc(C)cc1,"inconclusive: 25.9 µM [cytotoxic, single point]",

# (cont.)

SMILES,Potency,"activity change, negative = cytotoxic"
COc1ccc(S(=O)(=O)N2CCCC(C(=O)NCc3ccccn3)C2)cc1 (stereo not given),,inactive: -2.47%
Cc1cccc(NCC(=O)N/N=C/c2ccc(Br)cc2)c1,"inconclusive: 25.9 µM [cytotoxic, single point]",
CCOC(=O)C1=C(C)n2c(s/c(=C/c3cccc([N+](=O)[O-])c3)c2=O)=NC1c1ccc(O)c(OC)c1 (stereo not given),"inconclusive: 29.1 µM [cytotoxic, single point]",
CN(c1ccccc1)S(=O)(=O)c1cccc(C(=O)N2CCN(c3ccccn3)CC2)c1,"inconclusive: 20.6 µM [cytotoxic, partial curve, poor fit]",
COc1cc2c(cc1OC)C(c1ccc(Br)cc1)NCC2 (stereo not given),"inconclusive: 23.1 µM [rising, single point]",
CCOc1ccc2nc(NCCCNS(=O)(=O)c3ccccc3)c(C#N)cc2c1,"inconclusive: 29.1 µM [cytotoxic, single point]",
Cc1cc(C)c(NC(=O)C2CCN(C(=O)N3CCOc4ccccc43)CC2)c(C)c1,,inactive: -8.33%
COCCNC(=O)CCn1nc(-c2ccc(C)cc2)ccc1=O,,inactive: 11.7%
CC(=O)O[C@@H]1C[C@H]2C(C)(C)C(=O)C=C[C@]2(C)[C@H]2CC[C@@]3(C)[C@H](c4ccoc4)OC(=O)[C@H]4O[C@]43[C@@]21C,"inconclusive: 0.0018 µM [cytotoxic, full curve, poor fit]",
Cc1ccc(-n2nc3c(N4CCC(C(=O)NC5CCCCC5)CC4)nnc(C)c3c2C)cc1,,inactive: -0.918%
Cc1ccc(Cn2c(-n3nc(C)cc3C)nc3c2c(=O)[nH]c(=O)n3C)cc1,,inactive: -3.54%
CC(C)C[C@H]1CNC(=S)N1C[C@H]1CCCN1C[C@H](Cc1ccc(O)cc1)N1C[C@H](Cc2ccc(O)cc2)N(CC2CCCCCC2)C1=S,"inconclusive: 29.1 µM [cytotoxic, single point]",
CCCCN(C)CCNC(=O)c1ccc(Cn2c(=S)[nH]c3ccc(Br)cc3c2=O)cc1,,inactive: 0.136%
O=[N+]([O-])c1cc([N+](=O)[O-])c2c(=Nc3ccccc3)n(-c3ccccc3)n(O)c2c1,,inactive: -11.6%
COc1ccc(NC(=O)c2c(NCc3ccc(OC)c(OC)c3OC)sc3c2CCC3)c(OC)c1,,inactive: 4.81%
COc1ccc(OC)c(Nc2cc(C(=O)NCCCN3CCOCC3)c3ccccc3n2)c1,,inactive: 1.81%
COc1cccc(/C=C2\SC(=S)N(CCC(=O)NCCc3ccc(O)cc3)C2=O)c1,"inconclusive: 29.1 µM [cytotoxic, single point]",
NC(=O)N/N=C/c1cc(Br)ccc1OCC(=O)NCc1ccccc1,"inconclusive: 29.1 µM [rising, single point]",
CCOc1ccc(CCNC(=O)c2cc3sccc3n2CC)cc1OCC,"inconclusive: 20.6 µM [cytotoxic, single point]",
O=C(/C=C/c1cccnc1)c1ccc(F)c(F)c1,"inconclusive: 23.1 µM [cytotoxic, single point]",
Cc1onc(-c2ccccc2)c1CNC(=O)Nc1cccc(Cl)c1,"inconclusive: 4.11 µM [cytotoxic, partial curve, poor fit]",
O=C(Cc1coc2ccc3ccccc3c12)Nc1nnc(C2CC2)s1,"inconclusive: 4.11 µM [cytotoxic, full curve]",

SMILES,Potency,"activity change, negative = cytotoxic"
COc1ccc(C2Nc3ccccc3C(=O)N2NS(=O)(=O)c2ccc(C)cc2)c(OC)c1 (stereo not given),"inconclusive: 29.1 µM [rising, single point]",
COc1ccc(CCNC(=O)c2cn3ccc(C)cc3n2)cc1OC,,inactive: 1.85%
COC(=O)C1=C(C(=O)OC)[C@]2([C@H]3CCCCN[C@@H](Cc4ccccc4)C(=O)N3Cc3ccccc3)C=C[C@H]1O2,"inconclusive: 29.1 µM [cytotoxic, single point]",
NS(=O)(=O)c1ccc(N=Nc2c(-c3ccccc3)[nH]n(-c3nc(-c4ccccc4)cs3)c2=O)cc1,"inconclusive: 32.6 µM [cytotoxic, single point]",
CCOc1ccc(S(=O)(=O)N(CC)CC(=O)NC2CCS(=O)(=O)C2)cc1 (stereo not given),,inactive: -2.56%
CCC(=O)NCCc1cc2ccc(C)c(C)c2[nH]c1=O,"inconclusive: 16.4 µM [rising, single point]",
COc1cc(CN(C2CC2)S(=O)(=O)c2ccccc2Br)cc(OC)c1,"inconclusive: 23.1 µM [cytotoxic, single point]",
CN(Cc1ccccc1)C(=O)c1ccc([N+](=O)[O-])o1,,inactive: 1.17%
CCOC(=O)c1c(CN2CCN(C)CC2)n(C)c2cc(Br)c(OC)cc12,"inconclusive: 29.1 µM [cytotoxic, single point]",
COc1ccc2nc(NC(=O)C3CCN(S(=O)(=O)c4cccc5nsnc45)CC3)sc2c1,"inconclusive: 14.6 µM [cytotoxic, partial curve, poor fit]",
O=C1c2cc(Cl)ccc2-c2c(O)cc(Cl)cc21,"inconclusive: 29.1 µM [cytotoxic, single point]",
CCCCn1c(N)c(N(CC(C)C)C(=O)c2ccc(-c3ccc(Cl)cc3)o2)c(=O)[nH]c1=O,"inconclusive: 29.1 µM [cytotoxic, single point]",
COc1cccc(OC(=O)CSc2nnc(-c3cccs3)o2)c1,,inactive: 7.81%
COCCN(C(=O)CSc1nnc(-c2ccc(C)cc2)n1N)c1c(N)n(Cc2ccccc2)c(=O)[nH]c1=O,,inactive: 10.9%
CC(C)C1N=C2c3ccccc3N=C(SCc3cc(=O)n4cc(Cl)ccc4n3)N2C1=O (stereo not given),"inconclusive: 29.1 µM [cytotoxic, single point]",
COc1ccc(C2=NN(C(N)=S)C(c3ccco3)C2)cc1 (stereo not given),"inconclusive: 32.6 µM [cytotoxic, single point]",
COc1cccc(C=C(C(C)=O)C(=O)c2ccccc2)c1,"inconclusive: 23.1 µM [cytotoxic, single point]",
Cc1ccc(-c2nc3ccccc3c(C(=O)NCc3cccs3)c2C)cc1,"inconclusive: 11.6 µM [cytotoxic, partial curve]",
CCCCn1c(=S)[nH]c2c(=O)n(C)c(=O)n(C)c21,,inconclusive: 32.2%
COc1ccc(S(=O)(=O)Cc2ccc(C(=O)N3CCN(c4cccc(C)c4C)CC3)o2)cc1,"inconclusive: 18.4 µM [cytotoxic, single point]",
Cc1cccc(N2CCN(C(=O)c3cccc(N4C(=O)C5C6C=CC(C6)C5C4=O)c3)CC2C)c1 (stereo not given),"inconclusive: 29.1 µM [cytotoxic, single point]",
